Results are given in words; binding and its absence hold for the method and conditions named. Binding seen in cells or lysates may run through a third protein. Some entries that bind do so weakly or less than the wild type.

Sequences of proteins named here, by UniProt entry; tags and fusion partners are left off.
UniProt Q969H0: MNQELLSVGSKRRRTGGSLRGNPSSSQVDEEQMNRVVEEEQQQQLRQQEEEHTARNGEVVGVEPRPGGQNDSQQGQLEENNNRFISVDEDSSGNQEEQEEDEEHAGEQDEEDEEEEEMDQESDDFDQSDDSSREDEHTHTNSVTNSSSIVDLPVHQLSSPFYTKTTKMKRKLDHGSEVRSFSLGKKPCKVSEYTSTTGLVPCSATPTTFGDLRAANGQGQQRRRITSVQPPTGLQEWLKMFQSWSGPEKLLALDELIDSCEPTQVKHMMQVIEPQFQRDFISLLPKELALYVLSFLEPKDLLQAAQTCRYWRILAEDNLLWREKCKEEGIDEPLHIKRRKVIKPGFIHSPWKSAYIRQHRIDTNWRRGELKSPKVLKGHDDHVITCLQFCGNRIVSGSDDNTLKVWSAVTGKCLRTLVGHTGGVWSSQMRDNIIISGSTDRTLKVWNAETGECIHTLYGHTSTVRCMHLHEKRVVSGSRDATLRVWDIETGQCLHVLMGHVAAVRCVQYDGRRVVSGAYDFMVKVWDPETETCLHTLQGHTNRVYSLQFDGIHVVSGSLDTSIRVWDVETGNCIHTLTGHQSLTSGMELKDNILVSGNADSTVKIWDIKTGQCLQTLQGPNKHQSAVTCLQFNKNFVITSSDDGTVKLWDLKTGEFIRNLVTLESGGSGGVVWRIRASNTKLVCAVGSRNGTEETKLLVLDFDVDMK
UniProt P01106: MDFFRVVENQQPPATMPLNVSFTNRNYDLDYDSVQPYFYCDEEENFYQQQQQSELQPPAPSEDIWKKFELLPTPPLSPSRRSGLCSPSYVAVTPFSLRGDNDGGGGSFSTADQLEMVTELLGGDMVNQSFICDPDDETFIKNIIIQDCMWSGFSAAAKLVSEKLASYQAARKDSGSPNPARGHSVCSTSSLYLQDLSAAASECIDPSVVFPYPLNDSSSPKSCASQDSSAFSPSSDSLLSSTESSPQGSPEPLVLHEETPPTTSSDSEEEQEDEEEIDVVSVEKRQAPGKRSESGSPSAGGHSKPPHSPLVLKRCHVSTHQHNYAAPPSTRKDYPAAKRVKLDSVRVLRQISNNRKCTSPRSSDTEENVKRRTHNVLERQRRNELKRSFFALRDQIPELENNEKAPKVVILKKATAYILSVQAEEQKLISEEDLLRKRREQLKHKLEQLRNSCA
UniProt Q09472: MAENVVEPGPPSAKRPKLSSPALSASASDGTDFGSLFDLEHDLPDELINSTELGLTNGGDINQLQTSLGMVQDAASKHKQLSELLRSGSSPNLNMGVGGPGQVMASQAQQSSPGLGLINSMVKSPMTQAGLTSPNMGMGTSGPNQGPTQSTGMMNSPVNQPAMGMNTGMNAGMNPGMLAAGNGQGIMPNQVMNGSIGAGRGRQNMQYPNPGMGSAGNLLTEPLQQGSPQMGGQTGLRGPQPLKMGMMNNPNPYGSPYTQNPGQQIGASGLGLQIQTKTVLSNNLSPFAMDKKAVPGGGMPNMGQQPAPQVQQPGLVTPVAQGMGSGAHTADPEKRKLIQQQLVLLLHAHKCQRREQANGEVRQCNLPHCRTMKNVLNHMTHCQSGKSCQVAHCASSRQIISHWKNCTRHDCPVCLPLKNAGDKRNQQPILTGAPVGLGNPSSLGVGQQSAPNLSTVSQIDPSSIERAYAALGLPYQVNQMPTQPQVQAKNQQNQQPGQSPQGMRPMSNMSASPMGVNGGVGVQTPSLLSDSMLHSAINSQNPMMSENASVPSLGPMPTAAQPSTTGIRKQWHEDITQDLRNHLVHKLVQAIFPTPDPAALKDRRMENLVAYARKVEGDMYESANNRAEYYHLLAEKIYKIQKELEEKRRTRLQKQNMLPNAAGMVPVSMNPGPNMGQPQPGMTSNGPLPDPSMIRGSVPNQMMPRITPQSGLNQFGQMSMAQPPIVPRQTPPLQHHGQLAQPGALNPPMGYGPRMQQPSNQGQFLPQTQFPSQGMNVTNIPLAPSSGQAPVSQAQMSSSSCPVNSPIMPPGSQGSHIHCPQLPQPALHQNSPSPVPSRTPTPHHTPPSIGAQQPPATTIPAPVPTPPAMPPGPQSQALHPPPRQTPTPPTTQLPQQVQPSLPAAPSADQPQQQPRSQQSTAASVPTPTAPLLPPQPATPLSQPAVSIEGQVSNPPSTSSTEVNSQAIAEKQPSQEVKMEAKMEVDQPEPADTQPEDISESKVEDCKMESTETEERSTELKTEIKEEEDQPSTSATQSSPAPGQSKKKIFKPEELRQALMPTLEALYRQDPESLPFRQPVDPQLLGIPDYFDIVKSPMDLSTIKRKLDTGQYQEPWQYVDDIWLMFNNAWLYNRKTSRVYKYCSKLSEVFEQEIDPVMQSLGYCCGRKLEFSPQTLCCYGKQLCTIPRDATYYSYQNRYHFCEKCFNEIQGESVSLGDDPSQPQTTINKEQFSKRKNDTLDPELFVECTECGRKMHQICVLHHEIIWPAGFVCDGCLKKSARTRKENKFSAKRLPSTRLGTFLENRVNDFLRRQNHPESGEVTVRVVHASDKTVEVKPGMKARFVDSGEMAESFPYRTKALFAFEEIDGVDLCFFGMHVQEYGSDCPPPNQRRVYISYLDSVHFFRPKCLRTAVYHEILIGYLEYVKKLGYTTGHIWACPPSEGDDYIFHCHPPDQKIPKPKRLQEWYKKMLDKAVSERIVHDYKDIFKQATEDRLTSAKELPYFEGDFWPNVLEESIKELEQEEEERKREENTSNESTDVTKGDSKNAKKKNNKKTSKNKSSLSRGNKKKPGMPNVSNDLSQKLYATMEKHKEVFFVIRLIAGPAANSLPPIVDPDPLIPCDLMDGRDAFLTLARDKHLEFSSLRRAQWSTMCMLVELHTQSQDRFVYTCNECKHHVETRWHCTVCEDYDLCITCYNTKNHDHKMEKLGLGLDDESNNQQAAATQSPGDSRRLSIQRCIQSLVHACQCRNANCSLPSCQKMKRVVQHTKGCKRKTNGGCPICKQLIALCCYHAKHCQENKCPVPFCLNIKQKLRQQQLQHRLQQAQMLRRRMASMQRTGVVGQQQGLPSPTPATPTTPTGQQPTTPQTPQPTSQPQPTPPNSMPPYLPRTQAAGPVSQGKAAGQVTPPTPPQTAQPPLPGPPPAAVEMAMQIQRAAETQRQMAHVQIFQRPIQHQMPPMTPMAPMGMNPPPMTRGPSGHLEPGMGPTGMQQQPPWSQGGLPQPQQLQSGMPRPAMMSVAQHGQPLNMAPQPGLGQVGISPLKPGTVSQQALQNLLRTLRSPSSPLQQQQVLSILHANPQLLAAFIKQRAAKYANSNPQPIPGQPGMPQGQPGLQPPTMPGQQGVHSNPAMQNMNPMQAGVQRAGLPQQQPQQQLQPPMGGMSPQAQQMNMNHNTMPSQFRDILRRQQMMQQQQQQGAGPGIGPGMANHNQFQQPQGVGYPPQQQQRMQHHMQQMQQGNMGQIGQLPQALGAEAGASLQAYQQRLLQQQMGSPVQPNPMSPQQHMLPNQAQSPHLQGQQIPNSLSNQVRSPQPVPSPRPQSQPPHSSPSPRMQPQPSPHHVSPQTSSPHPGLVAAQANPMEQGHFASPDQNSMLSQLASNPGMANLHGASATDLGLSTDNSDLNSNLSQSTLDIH

Test [1] deals with T1, Miz-1 (UniProt Q13105).
T1 sequence: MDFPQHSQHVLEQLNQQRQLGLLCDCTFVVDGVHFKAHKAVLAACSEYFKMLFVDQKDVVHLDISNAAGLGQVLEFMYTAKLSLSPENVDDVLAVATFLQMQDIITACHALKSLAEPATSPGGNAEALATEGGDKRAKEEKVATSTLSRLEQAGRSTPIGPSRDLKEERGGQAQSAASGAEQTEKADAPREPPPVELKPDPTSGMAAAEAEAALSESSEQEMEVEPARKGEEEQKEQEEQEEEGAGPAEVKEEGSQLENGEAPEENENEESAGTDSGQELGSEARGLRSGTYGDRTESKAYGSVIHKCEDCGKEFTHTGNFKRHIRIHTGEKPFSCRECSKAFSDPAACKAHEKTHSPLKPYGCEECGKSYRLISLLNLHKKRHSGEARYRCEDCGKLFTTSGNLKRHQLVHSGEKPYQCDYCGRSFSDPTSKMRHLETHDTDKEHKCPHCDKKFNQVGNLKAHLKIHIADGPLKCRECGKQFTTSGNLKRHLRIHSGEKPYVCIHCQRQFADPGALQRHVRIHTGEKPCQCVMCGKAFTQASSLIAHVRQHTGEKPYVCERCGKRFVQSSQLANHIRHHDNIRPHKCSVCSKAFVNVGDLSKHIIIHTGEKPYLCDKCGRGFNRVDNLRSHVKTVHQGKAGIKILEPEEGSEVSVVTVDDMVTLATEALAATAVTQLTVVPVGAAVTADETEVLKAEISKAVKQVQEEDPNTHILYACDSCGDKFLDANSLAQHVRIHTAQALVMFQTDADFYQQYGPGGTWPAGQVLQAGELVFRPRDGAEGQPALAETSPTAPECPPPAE
The test can be described thus: co-IP; K562 cells transfected with Miz-1 constructs, with or without 0.5 μM imatinib; extracts incubated with anti-Miz-1 antibody overnight at 4 °C, Protein A/G Dynabeads, washed twice with PBS, western blot. In general terms: In western blotting, separated proteins are transferred to a membrane and probed.

Test [2] deals with Fbw7 (F-box and WD repeat domain-containing 7) (human (endogenous in K562)) (UniProt Q969H0). As to the kind of experiment: co-IP; K562 cells with or without TXNIP overexpression; extracts incubated with anti-Fbw7 antibody overnight at 4 °C, Protein A/G Dynabeads, washed twice with PBS, western blot.
Test [3] deals with T1, Miz-1. As to the kind of experiment: co-IP; as a1, the sample of K562 cells treated with 0.5 μM imatinib; anti-Miz-1 antibody, Protein A/G Dynabeads, western blot.

As to c-Myc (from UniProt P01106 1-454), the binding result was “binds” with Miz-1 [1], “binds” in test [2] and “no binding (condition: cells treated with 0.5 μM imatinib)” with Miz-1 [3].

Turning to p300 (from UniProt Q09472 1-2414), in the test with Miz-1 [1], the binding result was “binds”.

The values are drawn from publication PMC10125982.
